Values as published with doi:10.1371/journal.pone.0140310, rounded.

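Human melanoma cell lines in 1,536-well plates were treated with a pair of drugs for 72 h, then fixed, stained and imaged. Values are the number of DAPI-stained nuclei as a percentage of the DMSO control: 100 is no effect, lower means fewer cells. Every drug was used at one fixed concentration, the lower of two screened (a fifth of the higher). These are primary screening values without error estimates.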
An unselected part of the screen is shown.

All values are for the listed drug together with nilotinib (0.2 µM): Cc1cn(-c2cc(NC(=O)c3ccc(C)c(Nc4nccc(-c5cccnc5)n4)c3)cc(C(F)(F)F)c2)cn1

Partner | IPC-298
CC(C)(C)c1cnc(CSc2cnc(NC(=O)C3CCNCC3)s2)o1 at 0.01 µM | 104
CN(C)S(=O)(=O)c1ccc2c(c1)/C(=C/c1cc3c([nH]1)CCCC3)C(=O)N2 at 0.4 µM | 99.7
O=C(O)c1ccc(-c2c[nH]c3ncc(-c4ccccc4)cc23)cc1C1CCCC1 at 0.16 µM | 103
O=C(Nc1cccc(Cl)c1)Nc1ncc(CCNc2ncnc3ccsc23)s1 at 0.0008 µM | 96.9
Cn1cc(/C=C2\C(=O)Nc3cccnc32)c2ccccc21 at 0.4 µM | 91.1
CC(C)CCN1c2nc(Nc3cc(F)c(O)c(F)c3)ncc2N(C)C(=O)C1C (stereo not drawn) at 0.2 µM | 103
Cc1cc([N+](=O)[O-])ccc1NS(=O)(=O)c1cc(Cl)ccc1Cl at 1 µM | 97.1
CN1CCN(c2ccc3nc(-c4c(N)c5c(F)cccc5[nH]c4=O)[nH]c3c2)CC1 at 0.1 µM | 105
Cc1cc(N2CCOCC2)cc2[nH]c(-c3c(NC[C@@H](O)c4cccc(Cl)c4)cc[nH]c3=O)nc12 at 0.2 µM | 92.7
NC1(c2ccc(-c3nc4ccn5c(=O)[nH]nc5c4cc3-c3ccccc3)cc2)CCC1 at 0.4 µM | 90.3
NC(=O)Nc1cc(-c2cccc(F)c2)sc1C(=O)N[C@H]1CCCNC1 at 0.02 µM | 104
COc1ccc(COc2ccc(Cc3cnc(N)nc3N)cc2OC)cc1 at 1 µM | 99.4
COc1ccc(-c2ccc3c(N4CCOCC4)nc(N4C[C@@H](C)O[C@@H](C)C4)nc3n2)cc1CO at 0.02 µM | 96.0
O=C1NC(=O)/C(=C/c2ccc(-c3ccc(F)cc3O)o2)S1 at 1 µM | 93.4
COc1ccc(C2=N[C@@H](c3ccc(Cl)cc3)[C@@H](c3ccc(Cl)cc3)N2C(=O)N2CCNC(=O)C2)c(OC(C)C)c1 at 0.1 µM | 89.9
O=C(CCCCCCC(=O)Nc1ccccc1)NO at 0.08 µM | 104
O=C(/C=C/c1cccnc1)NCCCCC1CCN(C(=O)c2ccccc2)CC1 at 0.01 µM | 33.9
Cc1nc(Nc2ncc(C(=O)Nc3c(C)cccc3Cl)s2)cc(N2CCN(CCO)CC2)n1 at 0.004 µM | 102
CS(=O)(=O)CCNCc1ccc(-c2ccc3ncnc(Nc4ccc(OCc5cccc(F)c5)c(Cl)c4)c3c2)o1 at 0.8 µM | 98.5
CCc1ccc(CCOc2ccc(CC3SC(=O)NC3=O)cc2)nc1 (stereo not drawn) at 2 µM | 103
C[As](C)SC[C@H](NC(=O)CC[C@H](N)C(=O)O)C(=O)NCC(=O)O at 0.4 µM | 98.8
CCCCCCCCc1ccc(CCC(N)(CO)CO)cc1 at 2 µM | 107
CCCCCCCCCCCCCCCCCCOP(=O)([O-])OC1CC[N+](C)(C)CC1 at 0.4 µM | 96.2
CC[C@]1(O)C[C@H]2CN(CCc3c([nH]c4ccccc34)[C@@](C(=O)OC)(c3cc4c(cc3OC)N(C=O)[C@H]3[C@@](O)(C(=O)OC)[C@H](OC(C)=O)[C@]5(CC)C=CCN6CC[C@]43[C@@H]65)C2)C1 at 0.0001 µM | 95.9